Experimental findings from patent publication EP4792891A2 (LTZ Therapeutics Inc., dated 2026) are described below.

Results are given in words; binding and its absence hold for the method and conditions named. Some results given as binding are weak or reduced against the parent protein; the word gives no strength. For some of these results: Where a sequence is shown, tags or fusion partners need not be part of it.

Assay [1] concerns the target T1, Human CLEC5A His Tag protein (ACROBiosystems, Cat#: CLA-H5243) (human) (UniProt Q9NY25).
T1 sequence: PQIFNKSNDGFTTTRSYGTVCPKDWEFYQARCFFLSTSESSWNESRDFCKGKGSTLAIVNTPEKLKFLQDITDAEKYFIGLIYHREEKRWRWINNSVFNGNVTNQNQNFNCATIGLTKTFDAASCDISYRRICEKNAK
Kind of assay: ELISA, plate coated with human CLEC5A. In general terms: ELISA stands for enzyme-linked immunosorbent assay.

Assay [2] addresses T2, Human CLEC5A (C-type lectin domain family 5 member A) on the cell surface (human) (UniProt Q9NY25).
T2 sequence: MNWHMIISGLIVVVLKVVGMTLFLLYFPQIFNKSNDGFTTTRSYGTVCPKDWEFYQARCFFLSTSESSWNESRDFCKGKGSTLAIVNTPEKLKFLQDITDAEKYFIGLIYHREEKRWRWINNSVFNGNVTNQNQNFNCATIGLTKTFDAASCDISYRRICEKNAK
As to the kind of experiment: flow cytometry on human M0 macrophages.

In assay [3] the target is T2, Human CLEC5A (C-type lectin domain family 5 member A) on the cell surface (human). Kind of assay: flow cytometry on human peripheral monocytes, LEM supernatants, FITC anti-rabbit IgG. Background: In flow cytometry, cells or beads pass a laser one at a time.

B1: humanized anti-CLEC5A antibody h7G10 (antibody, V domains shown)
VH: EQQLVESGGGVVQPGRSLRLSCAASGFSFSSGYDMCWVRQAPGKGLEWIACIYGGRSDNVYYARWAKGRFTISKDSSTNTVFLQMNSLRAEDTAVYFCARDYLYRGYIGGGYGRSNLWGPGTLVTVSS
VL: DVQMTQSPSSVSASVGDRVTITCRASEDIENCLAWYQQKPGKPPKLLIYQASKLPSGVPSRFSGSGSGTDYTLTISSLQPEDFATYYCQNPDYMRNTDNLFGGGTKVEIK
Take B1: the binding result in assay [1] was “binds”.

B2: humanized anti-CLEC5A antibody h3A7 (antibody, V domains shown)
VH: EQQLLESGGGLVQPGGSLRLSCAASGFSFSGMYWICWVRQAPGKGLEWIACIYTGSSTTGYASWAKGRFTISKDSSKNTVYLQMNSLRAEDTAVYFCASPYGDSSHYRGLNLWGPGTLVTVSS
VL: DVQMTQSPSSLSASVGDRVTITCQASQRINNYLSWFQQKPGKPPKLLIYGAATLASGVPSRFSGSGSGTDYTLTISSLQPEDVATYYCQCTYGIPSSNYGFGGGTKVEIK
For B2, the binding result in assay [1] is recorded as “binds”.

B3: chimeric anti-CLEC5A antibody 9E11 (antibody, human IgG1, V domains shown)
VH: QSLEESGGGLVQPEGSLTLTCTASGFDLNNYYYMCWVRQAPGKGLEWIACTHAGSSSSSYYARWAKGRFTISKTSSTTVTLQMTSLTAADTATYFCARHDRDYDDMDLWGPGTLVTVSS
VL: NIVMTQTTSPVSAVVGGTITINCQASQSIEYGYLSWYQQKPGQPPKLLIFYASKLASGVPSRFSGSGSGTQFTLTISGVQPDDAATYFCLYGYFDDYSGAAFGGGTEVVVK
For the molecule B3, the binding entry in assay [2] is given as “binds”.

B4: 9E11 (rabbit anti-CLEC5A clone) (antibody, V domains shown)
VH: B3 VH
VL: B3 VL
Turning to B4, in assay [3], the binding result is listed as “binds”.

B5: humanized anti-CLEC5A antibody h13E6 (antibody, V domains shown)
VH: EQQLLESGGGLVQPGGSLRLSCAASGFSFSSSYWLCWVRQAPGKGLEWIACIYGGSSRGTYYASWAKGRFTISKDSSKNTVYLQMNSLRAEDTAVYFCASHTYTYPRFSPYFNLWGPGTLVTVSS
VL: EFVMTQSPATLSVSPGERATLSCQASEDIESSLAWYQQKPGQPPRLLIYDASDLESGVPARFSGSGSGTEYTLTISSLQSEDFAVYFCQSAYYTGSADNTFGGGTKVEIK
For B5, the binding entry in assay [1] is listed as “binds”.

B6: humanized anti-CLEC5A antibody h5C7 (antibody, V domains shown)
VH: EQQLVESGGGLVKPGGSLRLSCAASGFSFSRSSYMCWVRQAPGKCLEWIGCLSVGDGHTYYASWAKGRFTISKDSAKNSVYLQMNSLRAEDTAVYFCARAPSYSGDGGHGYDLWGPGTLVTVSS
VL: DIQMTQSPSSLSASVGDRVTITCQASESVDRNNRLAWFQQKPGKPPKLLIYTTSTLASGVPSRFSGSGSGTDFTLTISSLQPEDVATYYCAGYRGAHTDGDAFGCGTKVEIK
For B6, the binding result in assay [1] was “binds”.

B7: chimeric anti-CLEC5A antibody 7G10 (antibody, human IgG1, V domains shown)
VH: QQQLEESGGGLVKPGGTLTLTCKASGFSFSSGYDMCWVRQAPGKGLEWIACIYGGRSDNVYYARWAKGRFTISKTSSTTVTLQMTSLTAADTATYFCARDYLYRGYIGGGYGRSNLWGPGTLVTVSS
VL: DVVMTQTPASVSAAVGGTVTINCRASEDIENCLAWYQQKPGQPPKLLIYQASKLPSGVPSRFSGSGSGTEYTLTISDLEPDDGATYYCQNPDYMRNTDNLFGGGTEVVVK
Consider B7, for which the binding entry in assay [2] is “binds”.

B8: 7G10 (rabbit anti-CLEC5A clone) (antibody, V domains shown)
VH: B7 VH
VL: B7 VL
For B8, the binding result in assay [3] was “binds”.

B9: chimeric anti-CLEC5A antibody 6G9 (antibody, human IgG1, V domains shown)
VH: QSLEESGGDLVKPGASLTLTCTASGFSFTSNKYMCWVRQAPGKGPEWIACIYVGDGNTYYASWAKGRFTISKTSSTTVTLQMTSLTVADTATYFCARGGDYSIGGGGFASNLWGPGTLVTVSS
VL: AFELTQTPSSVEAAVGGTVTINCQASESISNFLAWYRQKPGQPPKLLIYRASTLASGVSSRFKGSGSGTEFTLTISDLEPADGASYYCQSYYGTSSTGHNVFGGGTEVVVK
Take B9: the binding result in assay [2] is recorded as “binds”.

B10: 6G9 (rabbit anti-CLEC5A clone) (antibody, V domains shown)
VH: B9 VH
VL: B9 VL
As to B10, the binding result in assay [3] is “binds”.

B11: 6A5 (rabbit anti-CLEC5A clone) (antibody, V domains shown)
VH: QQQLEESGGGLVKPGGTLTLTCTASGFSFSSSYYMCWVRQAPGKGLELIACIYSSSGRTWYATWVNGRFTISRSTSLNTVDLKMTSLTAADTATYFCARSYAGYGGYGYAYFNLWGPGTLVTVSS
VL: DIVMTQTPASVEAGVGGTVTIKCQASEDIYSSLAWYQQKAGQRPKLLIYDASTLASGVPSRFKGSGSGTEYTLTISGVQPDDAATYYCQNYYDSTGSGYGAAFGGGTEVVVK
On to B11, for which, in assay [3], the binding result is reported as “binds”.

B12: chimeric anti-CLEC5A antibody 6A5 (antibody, human IgG1, V domains shown)
VH: B11 VH
VL: B11 VL
Take B12: in assay [2], the binding entry is listed as “binds”.

B13: 3A7 (rabbit anti-CLEC5A clone) (antibody, V domains shown)
VH: QSLEESGGDLVKPGASLTLTCTASGFSFSGMYWICWVRQAPGKGLEWIACIYTGSSTTGYASWAKGRFTISKTSSTTVTLQMTSLTAADTATHFCASPYGDSSHYRGLNLWGPGTLVTVSS
VL: AVVMTQTPASVEAAVGGTVTINCQASQRINNYLSWFQQKPGQPPKLLIYGAATLASGVPSRFKGSGSGTEYTLTISDLEPADAATYYCQCTYGIPSSNYGFGGGTEVVVK
B13: the binding result in assay [3] is listed as “binds”.

B14: humanized anti-CLEC5A antibody h6A5 (antibody, V domains shown)
VH: EQQLVESGGGLVQPGGSLRLSCSASGFSFSSSYYMCWVRQAPGKGLELIACIYSSSGRTWYATWVNGRFTISRDTSKNTVYLQMNSLRAEDTAVYFCARSYAGYGGYGYAYFNLWGPGTLVTVSS
VL: EIVMTQSPATLSVSPGERATLSCQASEDIYSSLAWYQQKPGQRPRLLIYDASTLASGVPARFSGSGSGTEYTLTISSLQSEDFAVYYCQNYYDSTGSGYGAAFGGGTKVEIK
Take B14: the binding entry in assay [1] was “binds”.

B15: chimeric anti-CLEC5A antibody 13E6 (antibody, human IgG1, V domains shown)
VH: QSLEESGGDLVKPGGTLTLTCTASGFSFSSSYWLCWVRQAPGKGLEWIACIYGGSSRGTYYASWAKGRFTISKTSSTTVTLQMTSLTAADTATYFCASHTYTYPRFSPYFNLWGPGTLVSVSS
VL: AFEMTQTPASVSPAVGGTVSINCQASEDIESSLAWYQQKPGQPPKLLIYDASDLESGVPSRFKGSGSGTEYTLTISGVQPADAATYFCQSAYYTGSADNTFGGGTEVVVK
With B15, the binding entry in assay [2] is on record as “binds”.

B16: 13E6 (rabbit anti-CLEC5A clone) (antibody, V domains shown)
VH: B15 VH
VL: B15 VL
In the case of B16, in assay [3], the binding result is reported as “binds”.

B17: chimeric anti-CLEC5A antibody 14A2 (antibody, human IgG1, V domains shown)
VH: QSLEESGGGLVKPEGSLTLTCKASGFTLSSYYYMCWVRQAPGKGLEWIACIYAGSSGTTVYASWAKGRFTISKTSSTTVTLQMTSLTAADTATYLCARKLGDVGYGHTTYFNLWGPGTLVTVSS
VL: ALVMTQTPSSVSAAVGGTVTIKCQASQNIYSTLAWYQQKPGQPPKLLMFDASDLASGVPSRFKGSGSGTEYTLTISDLEPADAATYFCQTYYDSGSDDLNAFGGGTEVVVK
As for B17, the binding entry in assay [2] is reported as “binds”.

B18: 14A2 (rabbit anti-CLEC5A clone) (antibody, V domains shown)
VH: B17 VH
VL: B17 VL
B18: the binding result in assay [3] is listed as “binds”.

B19: 5C7 (rabbit anti-CLEC5A clone) (antibody, V domains shown)
VH: QSLEESGGDLVKPGASLTLTCTASGFSFSRSSYMCWVRQAPGKGLEWIGCLSVGDGHTYYASWAKGRFTISKTSSTSVTLQMTRLTAADTATYFCARAPSYSGDGGHGYDLWGPGTLVTVSS
VL: AIVMTQTPSSKSVPVGDTVTINCQASESVDRNNRLAWFQQKPGQPPKLLIYTTSTLASGVPSRFKGSGSGTHFTLTISDVVPDDAATYYCAGYRGAHTDGDAFGGGTEVVVK
For the molecule B19, in assay [3], the binding result is reported as “binds”.
